Measurements published in paper PMC8940956.
No constants are given. Whether binding was seen depends on the method and setting. In cells and extracts the contact can be indirect. Some results given as binding are weak or reduced against the parent protein; the word gives no strength.

Protein sequences, listed by entry. Tags and fused reporters are not part of them. Residues count along the entry.
UniProt Q01705, residues 19-2531: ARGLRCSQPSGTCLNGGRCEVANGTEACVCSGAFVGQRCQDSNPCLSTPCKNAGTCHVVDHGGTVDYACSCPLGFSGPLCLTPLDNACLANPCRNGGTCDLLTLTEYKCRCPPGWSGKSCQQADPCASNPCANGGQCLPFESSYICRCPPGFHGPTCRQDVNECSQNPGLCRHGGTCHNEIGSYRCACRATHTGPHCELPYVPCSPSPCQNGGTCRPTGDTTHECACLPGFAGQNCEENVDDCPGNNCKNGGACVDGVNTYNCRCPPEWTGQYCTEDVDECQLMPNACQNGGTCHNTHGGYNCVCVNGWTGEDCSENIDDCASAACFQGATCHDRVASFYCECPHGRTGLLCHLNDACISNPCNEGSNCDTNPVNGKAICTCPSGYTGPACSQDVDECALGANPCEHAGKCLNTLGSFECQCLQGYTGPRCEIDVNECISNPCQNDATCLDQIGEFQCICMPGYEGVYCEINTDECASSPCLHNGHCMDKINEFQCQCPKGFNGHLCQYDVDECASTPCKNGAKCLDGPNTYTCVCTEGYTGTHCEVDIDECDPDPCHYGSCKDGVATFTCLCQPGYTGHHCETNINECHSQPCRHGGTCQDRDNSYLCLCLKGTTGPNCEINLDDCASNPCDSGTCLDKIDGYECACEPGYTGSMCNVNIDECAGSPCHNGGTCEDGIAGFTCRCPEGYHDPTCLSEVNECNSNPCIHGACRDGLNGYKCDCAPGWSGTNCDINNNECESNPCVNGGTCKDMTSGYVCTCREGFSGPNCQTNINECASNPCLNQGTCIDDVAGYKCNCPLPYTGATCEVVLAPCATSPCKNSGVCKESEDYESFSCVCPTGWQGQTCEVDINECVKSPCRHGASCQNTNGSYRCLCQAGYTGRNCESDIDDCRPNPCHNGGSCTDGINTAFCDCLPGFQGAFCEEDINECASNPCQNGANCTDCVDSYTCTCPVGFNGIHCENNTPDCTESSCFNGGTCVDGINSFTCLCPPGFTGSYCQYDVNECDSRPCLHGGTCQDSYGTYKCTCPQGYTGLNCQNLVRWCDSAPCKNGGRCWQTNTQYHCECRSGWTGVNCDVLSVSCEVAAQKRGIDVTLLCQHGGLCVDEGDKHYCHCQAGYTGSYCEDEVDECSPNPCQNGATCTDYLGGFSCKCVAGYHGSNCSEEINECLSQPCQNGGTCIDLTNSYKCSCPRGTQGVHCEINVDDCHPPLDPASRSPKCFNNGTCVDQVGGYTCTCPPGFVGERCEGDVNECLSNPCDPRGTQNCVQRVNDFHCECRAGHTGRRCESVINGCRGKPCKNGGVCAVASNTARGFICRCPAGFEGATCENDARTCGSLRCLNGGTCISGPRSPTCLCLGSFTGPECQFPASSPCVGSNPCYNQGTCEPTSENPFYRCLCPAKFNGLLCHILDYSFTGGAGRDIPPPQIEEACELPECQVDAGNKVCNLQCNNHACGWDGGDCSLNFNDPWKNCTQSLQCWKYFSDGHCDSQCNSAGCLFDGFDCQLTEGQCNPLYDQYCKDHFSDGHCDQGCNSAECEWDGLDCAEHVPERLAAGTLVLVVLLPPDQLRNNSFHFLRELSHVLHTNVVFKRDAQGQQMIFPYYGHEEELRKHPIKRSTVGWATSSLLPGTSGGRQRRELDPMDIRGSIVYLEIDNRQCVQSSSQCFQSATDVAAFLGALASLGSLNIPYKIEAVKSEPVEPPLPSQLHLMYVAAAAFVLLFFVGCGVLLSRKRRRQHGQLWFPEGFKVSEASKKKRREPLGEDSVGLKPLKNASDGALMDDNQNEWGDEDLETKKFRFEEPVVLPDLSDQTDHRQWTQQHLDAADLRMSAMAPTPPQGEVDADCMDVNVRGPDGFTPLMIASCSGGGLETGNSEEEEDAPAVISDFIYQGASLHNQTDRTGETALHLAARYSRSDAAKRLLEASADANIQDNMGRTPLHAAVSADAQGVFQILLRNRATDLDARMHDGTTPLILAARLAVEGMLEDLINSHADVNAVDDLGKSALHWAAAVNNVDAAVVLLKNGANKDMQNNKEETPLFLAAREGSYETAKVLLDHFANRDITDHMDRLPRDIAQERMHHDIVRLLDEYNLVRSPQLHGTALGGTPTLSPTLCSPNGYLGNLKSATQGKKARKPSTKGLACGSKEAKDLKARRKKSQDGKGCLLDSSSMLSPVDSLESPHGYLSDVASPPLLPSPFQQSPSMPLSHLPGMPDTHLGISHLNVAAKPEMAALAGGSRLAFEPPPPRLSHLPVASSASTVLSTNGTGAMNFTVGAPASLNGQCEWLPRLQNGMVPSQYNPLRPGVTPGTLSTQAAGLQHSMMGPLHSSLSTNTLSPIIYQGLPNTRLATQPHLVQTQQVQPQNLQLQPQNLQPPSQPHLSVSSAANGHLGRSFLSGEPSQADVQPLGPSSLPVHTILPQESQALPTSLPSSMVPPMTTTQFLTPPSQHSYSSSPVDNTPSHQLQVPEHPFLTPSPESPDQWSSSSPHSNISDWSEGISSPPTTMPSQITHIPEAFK
UniProt P46531, residues 19-2555: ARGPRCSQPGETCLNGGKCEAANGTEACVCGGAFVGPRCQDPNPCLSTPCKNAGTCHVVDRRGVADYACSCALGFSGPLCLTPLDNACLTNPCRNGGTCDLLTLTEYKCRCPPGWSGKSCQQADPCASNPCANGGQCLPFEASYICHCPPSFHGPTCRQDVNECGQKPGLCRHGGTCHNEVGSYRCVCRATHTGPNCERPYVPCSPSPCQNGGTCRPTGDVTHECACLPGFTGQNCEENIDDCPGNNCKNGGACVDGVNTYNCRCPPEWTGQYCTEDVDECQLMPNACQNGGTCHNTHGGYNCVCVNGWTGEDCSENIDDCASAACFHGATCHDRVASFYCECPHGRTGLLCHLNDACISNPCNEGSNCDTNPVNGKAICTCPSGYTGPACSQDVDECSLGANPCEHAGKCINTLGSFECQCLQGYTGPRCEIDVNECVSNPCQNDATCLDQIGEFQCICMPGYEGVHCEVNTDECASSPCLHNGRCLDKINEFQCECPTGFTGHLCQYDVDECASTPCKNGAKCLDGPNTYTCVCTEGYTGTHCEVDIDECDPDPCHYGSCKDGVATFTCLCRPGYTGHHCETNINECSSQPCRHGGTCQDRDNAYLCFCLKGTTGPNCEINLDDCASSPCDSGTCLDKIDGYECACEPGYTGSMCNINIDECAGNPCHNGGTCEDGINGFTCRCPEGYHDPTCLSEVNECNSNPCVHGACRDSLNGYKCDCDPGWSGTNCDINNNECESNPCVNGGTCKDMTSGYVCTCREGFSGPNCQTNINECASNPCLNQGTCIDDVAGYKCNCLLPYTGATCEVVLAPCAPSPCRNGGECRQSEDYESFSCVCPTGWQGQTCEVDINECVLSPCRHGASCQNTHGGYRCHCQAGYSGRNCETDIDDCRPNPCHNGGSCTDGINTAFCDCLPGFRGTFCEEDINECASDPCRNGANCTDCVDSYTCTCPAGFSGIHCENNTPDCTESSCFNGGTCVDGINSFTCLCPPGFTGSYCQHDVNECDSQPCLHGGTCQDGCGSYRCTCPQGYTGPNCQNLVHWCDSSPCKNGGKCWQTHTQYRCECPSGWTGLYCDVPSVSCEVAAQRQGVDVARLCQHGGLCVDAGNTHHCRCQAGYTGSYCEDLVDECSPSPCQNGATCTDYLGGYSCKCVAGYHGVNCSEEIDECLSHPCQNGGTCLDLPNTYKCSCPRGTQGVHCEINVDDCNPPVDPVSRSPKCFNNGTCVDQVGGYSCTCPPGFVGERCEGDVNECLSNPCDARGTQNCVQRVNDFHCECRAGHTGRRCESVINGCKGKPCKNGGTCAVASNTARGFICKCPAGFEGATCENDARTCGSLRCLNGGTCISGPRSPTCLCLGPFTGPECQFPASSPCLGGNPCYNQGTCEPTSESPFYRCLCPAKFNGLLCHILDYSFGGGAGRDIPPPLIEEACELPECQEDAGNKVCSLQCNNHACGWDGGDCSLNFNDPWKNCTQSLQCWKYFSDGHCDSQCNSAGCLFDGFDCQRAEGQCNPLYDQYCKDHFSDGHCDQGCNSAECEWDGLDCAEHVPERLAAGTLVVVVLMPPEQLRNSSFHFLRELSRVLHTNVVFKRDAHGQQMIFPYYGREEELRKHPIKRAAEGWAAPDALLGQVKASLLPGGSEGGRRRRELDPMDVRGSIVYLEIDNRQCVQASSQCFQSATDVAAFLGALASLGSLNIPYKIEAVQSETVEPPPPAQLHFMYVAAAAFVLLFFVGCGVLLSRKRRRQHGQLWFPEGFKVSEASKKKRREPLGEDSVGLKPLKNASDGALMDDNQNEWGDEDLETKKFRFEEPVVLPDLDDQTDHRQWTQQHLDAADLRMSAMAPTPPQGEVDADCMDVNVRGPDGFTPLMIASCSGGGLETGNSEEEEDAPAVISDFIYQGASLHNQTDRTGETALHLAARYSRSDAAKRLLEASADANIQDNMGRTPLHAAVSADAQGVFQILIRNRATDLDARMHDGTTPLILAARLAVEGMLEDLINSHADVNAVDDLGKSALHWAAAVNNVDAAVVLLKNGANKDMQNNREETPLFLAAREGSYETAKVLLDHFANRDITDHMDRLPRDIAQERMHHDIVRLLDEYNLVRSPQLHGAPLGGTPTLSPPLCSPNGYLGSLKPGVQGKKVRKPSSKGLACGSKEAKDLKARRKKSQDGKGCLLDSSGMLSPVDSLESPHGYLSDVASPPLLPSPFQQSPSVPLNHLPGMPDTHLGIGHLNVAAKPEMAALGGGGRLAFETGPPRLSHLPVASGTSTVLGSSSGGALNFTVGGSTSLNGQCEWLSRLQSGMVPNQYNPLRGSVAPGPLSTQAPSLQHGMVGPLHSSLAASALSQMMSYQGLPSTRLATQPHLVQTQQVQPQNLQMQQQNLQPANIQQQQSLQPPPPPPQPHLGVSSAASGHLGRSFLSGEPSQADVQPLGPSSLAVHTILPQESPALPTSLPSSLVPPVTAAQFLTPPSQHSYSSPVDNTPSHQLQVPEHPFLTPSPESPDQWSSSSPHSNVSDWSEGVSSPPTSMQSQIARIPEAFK

Assays:
[1] = molecular target: Notch1, endogenous, mouse organs (mouse (endogenous in mouse organs)) (UniProt Q01705); test: co-IP; endogenous proteins; co-IP of GIT1 with Notch1 from lysates of mouse organs and of human breast cell lines (184A1, MDA-MB-231); 6 ug antibody 1 h at 4 °C, Protein G Sepharose overnight; lysis buffer A (10 mM HEPES pH 7.4, 100 mM NaCl, 2 mM EDTA, 1 mM 2-mercaptoethanol, 0.5% Triton X-100); washed with buffer A + 50 mM NaCl
[2] = molecular target: Notch1 (in the co-IP tested for GIT2; lysate not told) (UniProt P46531); test: co-IP; co-IP with Notch1 probed for GIT2 (Supplementary Fig. 9); lysate not given

| binding [1] | binding [2] | Binder |
| --- | --- | --- |
| binds |  | G protein-coupled receptor kinase-interacting protein 1 (GIT1), endogenous, mouse organs (protein, UniProt Q68FF6 1-770) MSRKGPRAEVCADCSAPDPGWASISRGVLVCDECCSVHRSLGRHISIVKHLRHSAWPPTLLQMVHTLASNGANSIWEHSLLDPAQVQSGRRKANPQDKVHPIKSEFIRAKYQMLAFVHKLPCRDDDGVTAKDLSKQLHSSVRTGNLETCLRLLSLGAQANFFHPEKGTTPLHVAAKAGQTLQAELLVVYGADPGSPDVNGRTPIDYARQAGHHELAERLVECQYELTDRLAFYLCGRKPDHKNGHYIIPQMADRSRQKCMSQSLDLSELAKAAKKKLQALSNRLFEELAMDVYDEVDRRENDAVWLATQNHSTLVTERSAVPFLPVNPEYSATRNQGRQKLARFNAREFATLIIDILSEAKRRQQGKSLSSPTDNLELSARSQSELDDQHDYDSVASDEDTDQEPLPSAGATRNNRARSMDSSDLSDGAVTLQEYLELKKALATSEAKVQQLMKVNSSLSDELRRLQREIHKLQAENLQLRQPPGPVPPPSLPSERAEHTLMGPGGSTHRRDRQAFSMYEPGSALKPFGGTPGDELATRLQPFHSTELEDDAIYSVHVPAGLYRIRKGVSASSVPFTPSSPLLSCSQEGSRHASKLSRHGSGADSDYENTQSGDPLLGLEGKRFLELSKEDELHPELESLDGDLDPGLPSTEDVILKTEQVTKNIQELLRAAQEFKHDSFVPCSEKIHLAVTEMASLFPKRPALEPVRSSLRLLNASAYRLQSECRKTVPPEPGAPVDFQLLTQQVIQCAYDIAKAAKQLVTITTREKKQ |
|  | no binding | GIT2 (protein, UniProt Q14161 1-759) MSKRLRSSEVCADCSGPDPSWASVNRGTFLCDECCSVHRSLGRHISQVRHLKHTPWPPTLLQMVETLYNNGANSIWEHSLLDPASIMSGRRKANPQDKVHPNKAEFIRAKYQMLAFVHRLPCRDDDSVTAKDLSKQLHSSVRTGNLETCLRLLSLGAQANFFHPEKGNTPLHVASKAGQILQAELLAVYGADPGTQDSSGKTPVDYARQGGHHELAERLVEIQYELTDRLAFYLCGRKPDHKNGQHFIIPQMADSSLDLSELAKAAKKKLQSLSNHLFEELAMDVYDEVDRRETDAVWLATQNHSALVTETTVVPFLPVNPEYSSTRNQGRQKLARFNAHEFATLVIDILSDAKRRQQGSSLSGSKDNVELILKTINNQHSVESQDNDQPDYDSVASDEDTDLETTASKTNRQKSLDSDLSDGPVTVQEFMEVKNALVASEAKIQQLMKVNNNLSDELRIMQKKLQTLQSENSNLRKQATTNVYQVQTGSEYTDTSNHSSLKRRPSARGSRPMSMYETGSGQKPYLPMGEASRPEESRMRLQPFPAHIGRSALVTSSSSLPSFPSTLSWSRDESARRASRLEKQNSTPESDYDNTPNDMEPDGMGSSRKGRQRSMVWPGDGLVPDTAEPHVAPSPTLPSTEDVIRKTEQITKNIQELLRAAQENKHDSYIPCSERIHVAVTEMAALFPKKPKSDMVRTSLRLLTSSAYRLQSECKKTLPGDPGSPTDVQLVTQQVIQCAYDIAKAAKQLVTITTKENNN |
